Screen size: about 400,000 compounds; about 13,000 (3.2%) were called active. Inconclusive means that the source gave no clear call. Such entries were picked first, then a sample of the others. Calls come from the whole dose curve; as a rule, active = well fitted cell-killing curve with a large enough effect; inconclusive = small, poorly fitted or top-dose-only effect, or effect the other way; inactive = flat fitted curve, though single readings scatter. A potency beside an inconclusive call is a rough fit, not a confirmed value.
Test: qHTS assay for MDR1-selective chemotherapeutics: Primary screen using the drug-selected MDR subline cells KB-V1; note: nearly all actives have a fitted effect of over 60% in size
Conditions: KB-V1 MDR cells viability, CellTiter-Glo, 72 h; activity change, negative = cytotoxicity: at 46.1 µM (top of the series)
In short: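 Cytotoxicity via CellTiter-Glo luminescence after 72 h compound exposure at 37 degrees C. Cells: drug-selected KB-V1 line, DMEM phenol-red free plus 10% FBS. Compounds tested at multiple concentrations; normalized data fitted to concentration-effect curves.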
% is set by controls: 0 for no effect and ±100 for the full control effect; potency is the fitted concentration of half-maximal effect.

With `Cc1nc(-c2cccnc2)sc1C(=O)Nc1ccc(C(F)(F)F)cc1` as the compound, how does the Potency read?
The Potency was inconclusive: 18.4 µM [cytotoxic, partial curve].

For `CN1CCN(C(=O)c2cc(Br)cn2C)CC1`, which Potency is on record?
Its Potency is inconclusive: 29.1 µM [rising, partial curve, poor fit].

For `COc1ccc(CNC(=O)c2c(O)nc3cc(C)ccn3c2=O)cc1`, which Potency is on record?
The Potency was inconclusive: 29.1 µM [cytotoxic, single point].

For `COc1ccc(CNC(=O)Cc2ccc(NC(=O)C3=C(C)OCCS3)cc2)cc1`, which Potency is on record?
The Potency was active: 14.6 µM.

For `Cc1nc(C)c(-c2csc(Nc3cccc(O)c3)n2)s1`, which Potency is on record?
Its Potency is inconclusive: 29.1 µM [cytotoxic, single point].

Which Potency does the source give for `CCOC(=O)C1=C(C)N=c2s/c(=C\c3cccn3C)c(=O)n2C1c1cccc(OC)c1OC` (configuration not stated) here?
The Potency was inconclusive: 29.1 µM [cytotoxic, partial curve, poor fit].

With `O=C(c1ccco1)N1CCN(C(=O)c2ccccc2OCc2ccc(Cl)cc2)CC1` as the compound, how does the Potency read?
Its Potency is inconclusive: 3.26 µM [cytotoxic, full curve, poor fit].

With `CCOc1ccccc1NC(=O)COn1nnc2ccccc21` as the compound, how does the Potency read?
The Potency was inconclusive: 23.1 µM [cytotoxic, single point].

With `Cc1cccc(NC(=S)NNC(=O)CCn2cc(C)cn2)c1` as the compound, how does the Potency read?
Its Potency is “inactive”.

Which Potency does the source give for `COc1cc(/C=C/C(=O)N2CCOCC2)ccc1OCc1ccccc1` here?
Its Potency is “inactive”.

Which Potency does the source give for `COc1cccc(C(=O)NC(=S)Nc2ccc(N3CCCC3)cc2)c1` here?
The Potency was inconclusive: 20.6 µM [cytotoxic, single point].

Which Potency does the source give for `COc1ccc(CNC(=O)C(=O)NCCC2CCCCN2S(=O)(=O)c2ccc(C)cc2)cc1` (configuration not stated) here?
The Potency was inconclusive: 5.8 µM [cytotoxic, partial curve].

Which Potency does the source give for `CSc1nc(Cl)c(C#N)c(-c2ccc(C)cc2)n1` here?
The Potency was “inactive”.

With `Cc1ccc(-c2cn3cccc(C)c3n2)cc1` as the compound, how does the Potency read?
Its Potency is “inactive”.

For `O=C(COC(=O)c1cc(=O)[nH]c2ccccc12)NCc1cccs1`, which Potency is on record?
The Potency was inconclusive: 20.6 µM [rising, partial curve, poor fit].

For `COc1cc([N+](=O)[O-])c2nccnc2c1`, which Potency is on record?
The Potency was inconclusive: 29.1 µM [rising, single point].

With `O=C(c1ccccc1)c1nc[nH]c1C(=O)Nc1ccccc1` as the compound, how does the Potency read?
The Potency was inconclusive: 29.1 µM [cytotoxic, single point].

For `Cc1ccc(Cl)cc1N1CCN(C(=O)c2cccc3c(=O)c(C)c(-c4ccccc4)oc23)CC1`, which Potency is on record?
The Potency was inconclusive: 20.6 µM [cytotoxic, single point].

Which Potency does the source give for `CCc1ccc(NC(=O)Cn2c(SC)nc3ccccc32)cc1` here?
Its Potency is inconclusive: 29.1 µM [cytotoxic, single point].

For `COc1cc(NC(=O)CCc2nc(-c3cccs3)no2)cc(OC)c1OC`, which Potency is on record?
Its Potency is inconclusive: 16.4 µM [cytotoxic, single point].

With `C/C(=N/NC(=O)CC(=O)N/N=C(\C)c1ccc([N+](=O)[O-])cc1)c1ccc([N+](=O)[O-])cc1` as the compound, how does the activity change, negative = cytotoxicity read?
The activity change, negative = cytotoxicity was inconclusive: -54.6%.

For `COc1ccc(C2C(O)C(c3c[nH]c4ccccc34)=NN2C(=O)CCl)cc1` (configuration not stated), which Potency is on record?
Its Potency is active: 14.6 µM.

With `CC12c3ccccc3C(c3ccccc31)C1C(=O)N(c3ccncc3)C(=O)C12` (configuration not stated) as the compound, how does the Potency read?
The Potency was “inactive”.

For `CC(Sc1cccc[n+]1[O-])C(=O)Nc1ccc(Oc2ccccc2)cc1` (configuration not stated), which Potency is on record?
Its Potency is inconclusive: 29.1 µM [cytotoxic, single point].

For `Cc1nc(Nc2ccccc2Cl)sc1C(=O)Nc1ccccc1`, which Potency is on record?
The Potency was inconclusive: 25.9 µM [cytotoxic, single point].

Which Potency does the source give for `Cc1c(/C=N/NC(=O)C(NC(=O)c2ccc3c(c2)OCO3)C(C)C)c2ccccc2n1C` (configuration not stated) here?
Its Potency is active: 18.4 µM.

Which Potency does the source give for `c1coc(-c2nnc(SCc3nc4ccccc4[nH]3)o2)c1` here?
Its Potency is active: 14.6 µM.

For `CCOC(=O)N1CCC(N2CC34C=CC(O3)C(C(=O)Nc3ccc(OCC)cc3)C4C2=O)CC1` (configuration not stated), which Potency is on record?
The Potency was “inactive”.

With `CCCCCOC(=O)CSc1ncnc2c1sc1nc(N3CCOCC3)c3c(c12)CCCC3` as the compound, how does the Potency read?
Its Potency is “inactive”.

With `Cc1ccc(CNC(=O)c2cc3c(C)nc4ccccc4c3o2)cc1` as the compound, how does the Potency read?
Its Potency is “inactive”.

With `COc1ccc(NC(=O)c2ccc(C#N)cc2)cc1NS(=O)(=O)c1ccc(F)cc1` as the compound, how does the Potency read?
The Potency was “inactive”.

With `O=C(COC(=O)c1ccc(-c2nnc(-c3ccccc3)o2)cc1)c1ccccc1` as the compound, how does the Potency read?
Its Potency is inconclusive: 16.4 µM [cytotoxic, single point].

For `Cn1c(=O)c2c(-c3ccccc3Cl)n(-c3cc(Cl)ccc3O)cc2n(C)c1=O`, which Potency is on record?
The Potency was “inactive”.

With `CC(C)OC(=O)c1cccnc1SCc1cc(=O)n2ccccc2n1` as the compound, how does the Potency read?
The Potency was inconclusive: 29.1 µM [cytotoxic, single point].

For `CCOC(=O)c1ccc2oc(=O)n(Cc3ccccc3)c2c1`, which Potency is on record?
Its Potency is “inactive”.

With `Cc1csc(C(C#N)C(=O)c2cc3ccccc3o2)n1` (configuration not stated) as the compound, how does the Potency read?
Its Potency is active: 20.6 µM.

For `Cc1cccc(N2CCN(C3=NC(=O)C(=C4CCCCC4)S3)CC2)c1`, which Potency is on record?
Its Potency is inconclusive: 11.2 µM [cytotoxic, partial curve].

For `O=C(c1cccs1)N1CCc2c([nH]c3ccccc23)C1c1ccc(Cl)cc1` (configuration not stated), which Potency is on record?
The Potency was active: 11.6 µM.

With `Clc1ccc(COc2ccccc2CNCc2cccnc2)cc1` as the compound, how does the Potency read?
Its Potency is inconclusive: 20.6 µM [cytotoxic, single point].

With `CC(=O)Nc1ccc(C2Sc3ccccc3NC3=C2C(=O)c2ccccc23)cc1` (configuration not stated) as the compound, how does the Potency read?
Its Potency is “inactive”.

Which Potency does the source give for `CN1CCN(CCOc2ccc(Cc3ccccc3)cc2)CC1` here?
The Potency was inconclusive: 10.3 µM [rising, partial curve, poor fit].

For `Cc1ccc(C)c(NC(=O)COC(=O)CCNC(=O)c2ccco2)c1`, which Potency is on record?
The Potency was inconclusive: 29.1 µM [rising, single point].

For `CC(=O)C12CC(C)=C(C)CC1CC1C3CCC4=CC(=O)CCC4(C)C3CCC12C` (configuration not stated), which Potency is on record?
The Potency was inconclusive: 16.4 µM [cytotoxic, single point].

For `COc1ccc2c(c1)[nH]c1c(N3CCN(Cc4ccc5c(c4)OCO5)CC3)ncnc12`, which Potency is on record?
The Potency was active: 2.59 µM.

Which Potency does the source give for `O=S(=O)(Nc1cccc(-c2nc3cccnc3s2)c1)c1ccc2c(c1)CCCC2` here?
Its Potency is “inactive”.

For `C[n+]1cccc(O)c1SCc1ccccc1`, which Potency is on record?
Its Potency is inconclusive: 18.4 µM [rising, single point].

For `COc1ccccc1CNC(=O)c1ccc(N2CCCC2)c(NC(=O)NCCC(C)C)c1`, which Potency is on record?
Its Potency is “inactive”.

With `O=C(COc1ccc2ccccc2c1)N1c2ccccc2Sc2ccccc21` as the compound, how does the Potency read?
The Potency was inconclusive: 23.1 µM [cytotoxic, partial curve].

Which Potency does the source give for `CN(C)c1ccc(/C=C/c2cc(N(C)C)nc3ccccc23)cc1` here?
The Potency was active: 1.84 µM.

With `CCn1c(SCc2nc(CC(=O)Nc3ccccc3OC)no2)nnc1-c1cccs1` as the compound, how does the Potency read?
Its Potency is active: 5.8 µM.

With `O=C(NCc1cccnc1)c1cccc(-c2cc3ccccc3oc2=O)c1` as the compound, how does the Potency read?
Its Potency is inconclusive: 29.1 µM [cytotoxic, single point].

With `O=C(NCc1cccnc1)c1cn(-c2ccccc2)nc1-c1ccccc1` as the compound, how does the Potency read?
The Potency was inconclusive: 20.6 µM [cytotoxic, partial curve].

For `CCN(CC(=O)NC(=O)NC1CCCCC1)Cc1ccccc1`, which Potency is on record?
Its Potency is inconclusive: 7.31 µM [cytotoxic, partial curve].

Which Potency does the source give for `COc1ccccc1NC(=O)COc1ccc(C(=O)OCC(=O)N(C(C)C)C(C)C)cc1OC` here?
The Potency was inconclusive: 18.4 µM [cytotoxic, single point].

With `CC(C)c1ccc(Nc2n[nH]c(=S)s2)cc1` as the compound, how does the Potency read?
Its Potency is “inactive”.

With `O=C(CCCc1c[nH]c2ccccc12)NCCc1c[nH]c2ccccc12` as the compound, how does the Potency read?
The Potency was inconclusive: 18.4 µM [cytotoxic, single point].

With `Cc1ccc(NC(=O)c2ccccc2Br)cc1S(=O)(=O)N(C)C` as the compound, how does the Potency read?
The Potency was inconclusive: 16.4 µM [cytotoxic, partial curve].

Which Potency does the source give for `COc1ccc(S(=O)(=O)N2CCOC2CNC(=O)C(=O)NCCc2c[nH]c3ccccc23)cc1C` (configuration not stated) here?
The Potency was “inactive”.

With `Cc1cc(C(=O)CN2C(=O)C(=O)N(CC(C)C)C2=O)c(C)n1C1CC1` as the compound, how does the Potency read?
The Potency was active: 18.4 µM.

With `O=C(NC(NC(=S)Nc1c(Cl)cccc1Cl)C(Cl)(Cl)Cl)c1cccc([N+](=O)[O-])c1` (configuration not stated) as the compound, how does the Potency read?
The Potency was inconclusive: 29.1 µM [cytotoxic, single point].

With `Cc1ccc(N/C(SCc2ccccc2C)=C(/C#N)C(=O)NCc2ccco2)cc1C` as the compound, how does the Potency read?
The Potency was active: 11.6 µM.

For `CC(C)(C)c1ccc(C(=O)N2CCCN(c3ccc([N+](=O)[O-])cn3)CC2)cc1`, which Potency is on record?
Its Potency is inconclusive: 8.2 µM [cytotoxic, partial curve].

For `O=C(Nc1cccc(C(=O)O)c1)/C(=C\c1ccco1)NC(=O)c1ccccc1`, which Potency is on record?
The Potency was inconclusive: 11.6 µM [rising, single point].

For `CCOC(=O)C1C(=O)C(C(C)=O)C(=O)CC1CC(C)SCC` (configuration not stated), which Potency is on record?
The Potency was active: 20.6 µM.

Which Potency does the source give for `COc1ccccc1-c1ccc(=O)n(CC(=O)NCC2CCCO2)n1` (configuration not stated) here?
The Potency was inconclusive: 29.1 µM [rising, single point].

Which Potency does the source give for `CC(=O)N1CCc2c(sc3c2c(=O)n(-c2ccccc2)c(=O)n3CC(=O)Nc2ccccc2C)C1` here?
Its Potency is inconclusive: 29.1 µM [rising, single point].

For `OC(C#Cc1ccccn1)c1cccs1` (configuration not stated), which Potency is on record?
The Potency was inconclusive: 18.4 µM [cytotoxic, single point].

For `O=C(COC(=O)C1COc2ccccc2O1)Nc1cccc(S(=O)(=O)N2CCCCC2)c1` (configuration not stated), which Potency is on record?
The Potency was “inactive”.

With `O=C(Nc1ccc(Cn2nnc3ccccc32)cc1)c1ccco1` as the compound, how does the Potency read?
The Potency was active: 16.4 µM.

With `O=C(NC(=S)NNC(=O)c1cccs1)c1ccc(Br)o1` as the compound, how does the Potency read?
The Potency was inconclusive: 29.1 µM [cytotoxic, single point].

For `COc1ccc(C(=O)CSc2nc(=O)n(Cc3cccnc3)c3c2CCC3)cc1`, which Potency is on record?
The Potency was active: 14.6 µM.

For `O=C(CN1C(=O)CCSc2ccc(S(=O)(=O)N3CCOCC3)cc21)Nc1ccccc1Cl`, which Potency is on record?
The Potency was inconclusive: 20.6 µM [cytotoxic, single point].

Reference: PubChem BioAssay AID1347076 (National Center for Advancing Translational Sciences (NCATS), 2019)
